This sample is rich in variants without activity.
B1: tRNA (parent)
chain: GUUCCGUUGGCGUAAUGGUAACGCGUCUCCCUCCUAAGGAGAAGACUGCGGGUUCGAGUCCCGUACGGAACG

Variants of: B1
Experiment: yeast fitness relative to wild type (ratio to wild type); higher = fitter; tRNA-Arg(CCU), competitive growth, 37 C, YPD
Summary of the method: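 Changes in genotype frequencies gave Darwinian fitness relative to wild type. Frequencies were read by 100-nucleotide paired-end sequencing of gene amplicons before and after pooled Saccharomyces cerevisiae strains, carrying tRNA-Arg(CCU) gene variants at the native locus, were competed in YPD at 37°C for 24 hours in six replicates. A genotype was kept only with ≥ 100 starting reads, and estimates < 0.5 were set to 0.5.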

Point of comparison: C31U C46A, yeast fitness 1.01. Against it:
- C5A A15U C31G G44A U47A G51C C66U — lower, ≤ 0.5
- U3A A21C U26C A40C A45G U59A — lower, ≤ 0.5
- C24G C30G C34G A70G — lower, ≤ 0.5
- C34G G50C U53A A69C — lower, ≤ 0.5
- C5G C27G C33U G56A A69U — lower, 0.52
- A15C C31G C55A G67A — lower, ≤ 0.5
- C30A C55A G67A — lower, ≤ 0.5
- G10A C27A A37G — lower, ≤ 0.5
- A21G C31U C33U U59A — lower, ≤ 0.5
- C4G A37C U59G — lower, ≤ 0.5
- C11U C24U — lower, 0.852
- U8C C27G A36G — lower, ≤ 0.5
- A37C U47G U53A — lower, 0.535
- A21U C22G C33U A65C — lower, ≤ 0.5
- U26C A37C C66G — lower, ≤ 0.5
- G9C C22A C34A A70G — lower, ≤ 0.5
- C30G C46A C62G — lower, ≤ 0.5
- C5G A14G C33A C55G — lower, ≤ 0.5
- C11U A15U C33A — lower, ≤ 0.5
- A20C U28G C46A A65U — lower, ≤ 0.5
- G6A C11U G68A — lower, ≤ 0.5
- C5U C22U C24G A42C U53G G67C — lower, ≤ 0.5
- C11U C66U A69G — lower, 0.639
- C31U A37U G50A A70U — lower, ≤ 0.5
- C11G C34U C66G — lower, ≤ 0.5
- C5A C31U G44C — lower, ≤ 0.5
- C5G G6A C31U C49G — lower, ≤ 0.5
- C4G A15U A21G G44A — lower, ≤ 0.5
- G6C U16A G18C C22G C49U — lower, ≤ 0.5
- A20C U35A A36G G44C A57C — lower, ≤ 0.5
- C31U U47C — lower, 0.934
- A14U U47A A57G — lower, ≤ 0.5
- G9A A15U A20G G39C C60U A69C — lower, ≤ 0.5
- U19G C34U — lower, 0.687
- C27G C33G G51C A65U — lower, ≤ 0.5
- U8A C24A C30U C31U G48C — lower, 0.58
- C5U C46U U59G — lower, 0.538
- C29A G38C C49G A69C — lower, ≤ 0.5
- A14G C49U G63C — lower, ≤ 0.5
- U32C G58A C66A — lower, ≤ 0.5
- C30A C34U G63C — lower, 0.698
- C4U A15C A40G U53C — lower, ≤ 0.5
- G12C C33U A42C — lower, ≤ 0.5
- G10A A21C C24A — lower, ≤ 0.5
- C4A U54G A65U — lower, ≤ 0.5
- C4G C31A A37G C55U A57G — lower, ≤ 0.5
- C29A A43U G67A — lower, ≤ 0.5
- A20U G68A A69C — lower, 0.639
- C27U C33U U47A A70C — lower, ≤ 0.5
- U3A C24G A36G C61A — lower, ≤ 0.5
- C4A C27G C30U — lower, ≤ 0.5
- C33A U47A G56C — lower, ≤ 0.5
- C5G C22A C30U U47A G67C — lower, ≤ 0.5
- A21U A36U A45U — lower, ≤ 0.5
- U8G C31G A42C — lower, ≤ 0.5
- U7A G9A C24A G68C — lower, ≤ 0.5
- G6C C33G A36C C49A C60G — lower, ≤ 0.5
- G38C C62U A65G A70U — lower, ≤ 0.5
- C4U G39C G56C — lower, ≤ 0.5
- C4A C33G G48A C66G A70C — lower, ≤ 0.5
- A21G C22U G38C A43C C61A — lower, ≤ 0.5
- C31U G41C — lower, 0.796
- A45U C49A G52C G56A A69G — lower, ≤ 0.5
- G12A A43U C60U A69U — lower, ≤ 0.5
- G12A G63C — lower, 0.704
- U19C C27A C31G A43G — lower, ≤ 0.5
- C24A A43G G52A A69U A70C — lower, ≤ 0.5
- G17C U35C G44A G48C C55G A69U — lower, ≤ 0.5
- U2C G63A — lower, 0.799
- C29G U35A A36C G68A — lower, ≤ 0.5
- C11G C31A C55U — lower, ≤ 0.5
- C4U U8G A15U G51A C60U G68A — lower, ≤ 0.5
- A36C G51C — lower, ≤ 0.5
- C4U A14C A15U G52C C55U — lower, ≤ 0.5
- C11A G41A U47A A65C — lower, ≤ 0.5
- U28A C30U A69C — lower, 0.57
- U28C G38C A45U G68A A69C — lower, ≤ 0.5
- U7A C34G G48C — lower, ≤ 0.5
- C5G G17C C62U G63C A70C — lower, ≤ 0.5
- G6A A20C G56C — lower, ≤ 0.5
- G17A U19C C34A A40G — lower, ≤ 0.5
- G12A C34G A70U — lower, ≤ 0.5

Source: the RNAGym collection of RNA variant scans (doi:10.1126/science.aae0568)
